Literature values, collected in patent US20070166367A1, “Adept or gdept producing acetaldehyde” (priority 2004, published 2007).
Where two headings read alike, the source gives them in different places.

System: Transfected CHO cells
Conditions: cited from earlier work

CC=O [acetaldehyde]
reported levels of AA produced (Holownia et al (1996)): 200 to 400 µM | reported levels of AA produced (Holownia et al (1999)): 450 µM | reported levels of AA produced (after 48 hours, Mapoles et al (1994)): 1000 µM
